According to US6458194B1, “Azo dye compound having 1,2,4-triazole as the azo component” (Fuji Photo Film Co., Ltd., priority 1999, dated 2002):

How the values were obtained:
[1] = Thermal transfer printing with dye donating materials: hue, maximum density; set-up: key to Hue: ∘: bright yellow hue; Δ: slightly poor in yellow hue; X: poor in yellow hue; conditions: for Hue: thermal transfer image from dye donating materials 2-1 to 2-19; for Maximum Density: thermal transfer image, thermal head 0.25 W/dot
Text: A polyethylene terephthalate film of 6 μm thick (product of Teijin, Ltd.), the rear surface of which having been subjected to heat-resistant smoothing finish, was used as a support, and a coating composition for forming a thermal transfer dye donating layer having a formulation shown below was coated by wire-bar coating on the front surface of the support so as to attain a dry thickness of 1.5 μm, thereby to fabricate a thermal transfer dye donating material (2-1).
Thermal transfer dye donating materials (2-2) to (2-19) were also fabricated similarly to the foregoing process except that using other compound listed in Table 1 in place of using Compound 5.
A synthetic paper of 150 μm thick (YUPO-FPG-150, product of Oji-Yuka Synthetic Paper Co., Ltd.) was used as a support, and a coating composition having a formulation shown below was coated thereon by wire-bar coating so as to attain a dry thickness of 8 μm, thereby to fabricate a thermal transfer image accepting material. The drying was effected by preliminary drying with a dryer, and the successive drying in an oven at 100° C. for 30 min. Coating Composition for Forming Thermal Transfer Image Accepting
Thus obtained thermal transfer dye donating materials (2-1) to (2-19) were individually stacked with the thermal transfer image accepting material so that the dye donating layer of the former and the image accepting layer of the latter come into contact. Printing was then performed from the support side of the thermal transfer dye donating material using a thermal head with an output power of 0.25 W/dot, pulse width of 0.15 to 15 msec and dot density of 6 dot/mm, thereby to transfer the yellow to red dye and to form an image in the image accepting layer of the image accepting material. […] Individual materials were evaluated for the hue, maximum density and suitability in ink production.
Δ slightly poor in yellow hue; and […]

[2] = Evaluation of filters (6-1) to (6-12): hue and surface property; set-up: key to Hue: ∘: bright yellow hue; Δ: slightly poor in yellow hue; X: poor in yellow hue; key to Surface property of filter: ∘: no crystal nor agglomeration of the dye observed under microscope; Δ: a slight crystal or agglomeration of the dye observed under microscope, while being not visible in visual inspection; X: crystal or agglomeration of the dye observed in visual inspection; conditions: for Hue: filter; for Surface property of filter: spin coated on glass plate
Text: A glass plate of 3 mm thick was used as a support, and a coating composition having a formulation shown below was coated by spin coating on the surface of the support so as to attain a dry thickness of 10 μm, thereby to fabricate a filter (6-1). The filter was preliminarily dried with a dryer, and was then allowed to stand at the room temperature for 2 days for thorough drying.
Filters (6-1) to (6-12) were also fabricated similarly to the filter (6-1) except that using an equal weight of other compounds (listed in Table 6) in place of Compound 1. The filters (6-1) to (6-12) were then evaluated for the hue (as in Example 2) and the surface property.
Surface Property of the Filter.
∘ no crystal nor agglomeration of the dye observed under microscope;
Δ a slight crystal or agglomeration of the dye observed under microscope, while being not visible in visual inspection; and
X crystal or agglomeration of the dye observed in visual inspection.

[3] = Evaluation of ink sheets (5-1) to (5-12); set-up: key: ∘: bright yellow hue; Δ: slightly poor in yellow hue; X: poor in yellow hue; conditions: ink sheet
Procedure: A transparent polyester-base polymer film of 150 μm thick was used as a support, and a coating composition (1) for forming an ink sheet having a formulation shown below was coated by wire-bar coating on the surface of the support so as to attain a dry thickness of 20 μm, thereby to fabricate an ink sheet (5-1). The drying was effected by preliminary drying with a dryer, and the successive drying in an oven at 100° C. for 30 minutes.
Ink sheets (5-1) to (5-12) were also produced similarly to the ink sheet (5-1) except that using an equal weight of other compounds (listed in Table 5) in place of Compound 1. The ink sheets (5-1) to (5-12) were then evaluated as in Example 2.

[4] = Evaluation of inks (4-1) to (4-12); set-up: key: ∘: bright yellow hue; Δ: slightly poor in yellow hue; X: poor in yellow hue; conditions: ink
Procedure: The composition having the formulation shown below was solubilized under stirring at 50° C. for 30 minutes, and then gradually ed to obtain an ink (4-1).
Inks (4-2) to (4-12) were also produced similarly to the ink (4-1) except that using an equal weight of other compounds (listed in Table 4) in place of Compound 1.
Inks (4-1) to (4-12) were evaluated as in Example 2.

[5] = Image transfer onto image accepting materials with or without dye fixer: image density
Text: A stacked synthetic paper of 150 μm thick was used as a support, and a coating composition (1) for forming an image accepting layer having a formulation shown below was coated by wire-bar coating on the surface of the support so as to attain a dry thickness of 5 μm, thereby to fabricate a thermal transfer image accepting material (1) (simply referred as to “image accepting material, hereinafter). The drying was effected by preliminary drying with a dryer, and the successive drying in an oven at 80° C. for 1 hour.
Image accepting materials (2) to (4) were also fabricated similarly to the foregoing process except that individually using dye fixers and other binder resins listed in Table 2 in place of dye fixer P-24 and the binder for image accepting material (1).
Comparative image accepting material (A) was also fabricated using a composition similar to that used for the image accepting material (2) of Example 3 except that containing no dye fixer.
Image transfer was then performed using the image accepting materials (1) to (5) and (A), and the thermal transfer dye donating materials (2-1) to (2-5) fabricated in Example 2.

CCSc1nsc(N=Nc2c(C)nn3c(C(C)(C)C)n[nH]c23)n1 [Comparative Compound “a”, reference compound]
Hue [1]: Δ | Maximum Density [1]: 1.5

CC(C)c1nn2nc(-c3ccccc3Cl)c(N=Nc3nc(-c4ccccc4)ns3)c2[nH]1 [Compound 9]
Hue [1]: ∘ | Maximum Density [1]: 2.0 | Hue [2]: ∘ | Surface property of filter [2]: ∘ | Hue [3]: ∘ | Hue [4]: ∘

CSc1nsc(N=Nc2c(C(C)(C)C)nn3nc(C(C)C)[nH]c23)n1 [Compound 4]
Hue [1]: ∘ | Maximum Density [1]: 2.0 | Hue [2]: ∘ | Surface property of filter [2]: ∘ | Hue [3]: ∘ | Hue [4]: ∘

CSc1nsc(N=Nc2c(C(C)(C)C)nn3nc(C(C)CN4C(=O)C=CC4=O)[nH]c23)n1 (stereo not drawn) [Compound 25]
Hue [1]: ∘ | Maximum Density [1]: 2.0

Cc1nn2nc(C(C)(C)C)c(N=Nc3nc(-c4ccccc4)ns3)c2[nH]1 [Compound 10]
Hue [1]: ∘ | Maximum Density [1]: 2.1

CSc1nsc(N=Nc2c(C(C)(C)C)nn3nc(C(C)CN4C(=O)c5ccccc5C4=O)[nH]c23)n1 (stereo not drawn) [Compound 15]
Hue [1]: ∘ | Maximum Density [1]: 1.8

CSc1nsc(N=Nc2c(C)nn3nc(C)[nH]c23)n1 [Compound 1]
Hue [2]: ∘ | Surface property of filter [2]: ∘ | Hue [3]: ∘ | Hue [4]: ∘

CCOC(=O)C(CC)Sc1nsc(N=Nc2c(C)nn3nc(C)[nH]c23)n1 (stereo not drawn) [Compound 6]
Density ([5]; image accepting material (2), dye fixer P-3, dye donating material 2-2): 2.2

CCCc1nn2nc(C(C)(C)C)c(N=Nc3nc(SC)ns3)c2[nH]1 [Compound 5]
Hue [1]: ∘ | Maximum Density [1]: 2.1 | Hue [2]: ∘ | Surface property of filter [2]: ∘ | Hue [3]: ∘ | Density ([5]; comparative image accepting material (A), no dye fixer, dye donating material 2-1): 1.8 | Density ([5]; image accepting material (1), dye fixer P-24, dye donating material 2-1): 2.3 | Hue [4]: ∘

CCS(=O)(=O)c1nsc(N=Nc2c(-c3ccccc3Cl)nn3nc(C(C)C)[nH]c23)n1 [Compound 18]
Hue [1]: ∘ | Maximum Density [1]: 1.9

Cc1nn2nc(C(C)C)c(N=Nc3nc(-c4ccccc4)ns3)c2[nH]1 [Compound 21]
Hue [1]: ∘ | Maximum Density [1]: 2.1

CCSc1nsc(/N=N/c2c(-c3ccccc3Cl)nn3nc(C(C)C)[nH]c23)n1 [Compound 34]
Hue [1]: ∘ | Maximum Density [1]: 2.0

CCSc1nsc(N=Nc2c(C(C)(C)C)nn3nc(C(C)C)[nH]c23)n1 [Compound 31]
Hue [1]: ∘ | Maximum Density [1]: 2.0 | Hue [2]: ∘ | Surface property of filter [2]: ∘ | Hue [3]: ∘ | Hue [4]: ∘

CCSc1nsc(N=Nc2c(-c3ccccc3Cl)nn3nc(-c4cccc([N+](=O)[O-])c4)[nH]c23)n1 [Compound 13]
Density ([5]; image accepting material (4), dye fixer P-23, dye donating material 2-4): 2.0

CSc1nsc(N=Nc2c(-c3ccccc3)nn3nc(C(C)C)[nH]c23)n1 [Compound 7]
Hue [1]: ∘ | Maximum Density [1]: 2.0 | Hue [2]: ∘ | Surface property of filter [2]: ∘ | Hue [3]: ∘ | Hue [4]: ∘

CSc1nsc(N=Nc2c(C(C)(C)C)nn3nc(C)[nH]c23)n1 [Compound 2]
Hue [2]: ∘ | Surface property of filter [2]: ∘ | Hue [3]: ∘ | Hue [4]: ∘

CCS(=O)(=O)c1nsc(N=Nc2c(C(C)(C)C)nn3nc(C(C)C)[nH]c23)n1 [Compound 32]
Hue [1]: ∘ | Maximum Density [1]: 2.0 | Hue [2]: ∘ | Surface property of filter [2]: ∘ | Hue [3]: ∘ | Hue [4]: ∘

CCOc1nn2nc(C)[nH]c2c1N=Nc1nc(-c2ccc(C(F)(F)F)cc2)ns1 [Compound 11]
Hue [1]: ∘ | Maximum Density [1]: 2.0

CCSc1nsc(N=Nc2c(C)nn3nc(C)[nH]c23)n1 [Compound 3]
Hue [2]: ∘ | Surface property of filter [2]: ∘ | Hue [3]: ∘ | Hue [4]: ∘

Cc1nn2nc(C(C)(C)C)c(N=Nc3nc(-c4cccc([N+](=O)[O-])c4)ns3)c2[nH]1 [Compound 12]
Density ([5]; image accepting material (3), dye fixer P-22, dye donating material 2-3): 1.9

COc1ccc(-c2nsc(N=Nc3c(C(C)(C)C)nn4nc(C(C)C)[nH]c34)n2)cc1 [Compound 20]
Hue [1]: ∘ | Maximum Density [1]: 1.9 | Density ([5]; image accepting material (5), dye fixer P-24, dye donating material 2-5): 2.1
